Source: article PMC11982326

By UniProt entry, the sequences of proteins in these tests, tags left out.
UniProt Q9BYJ9: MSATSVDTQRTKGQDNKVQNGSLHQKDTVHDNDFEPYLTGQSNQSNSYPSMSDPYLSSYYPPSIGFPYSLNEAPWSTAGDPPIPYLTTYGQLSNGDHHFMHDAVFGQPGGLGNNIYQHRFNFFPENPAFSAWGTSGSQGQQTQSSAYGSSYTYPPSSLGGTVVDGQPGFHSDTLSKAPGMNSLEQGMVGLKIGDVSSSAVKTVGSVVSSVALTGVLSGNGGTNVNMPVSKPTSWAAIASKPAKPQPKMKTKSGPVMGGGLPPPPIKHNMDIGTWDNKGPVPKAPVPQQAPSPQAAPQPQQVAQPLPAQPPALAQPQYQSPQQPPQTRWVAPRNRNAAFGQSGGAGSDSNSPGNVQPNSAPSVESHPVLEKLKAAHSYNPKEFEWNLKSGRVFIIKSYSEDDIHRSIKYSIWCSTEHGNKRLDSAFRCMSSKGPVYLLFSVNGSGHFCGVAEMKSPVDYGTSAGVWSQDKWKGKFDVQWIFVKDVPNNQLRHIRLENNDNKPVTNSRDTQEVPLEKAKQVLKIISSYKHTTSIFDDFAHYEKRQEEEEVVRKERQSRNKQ

Biological target: Flag-tagged YTHDF1 (YTH domain family protein 1) (UniProt Q9BYJ9)
Assay: affinity purification with mass spectrometry; Flag-YTHDF1 stably overexpressed in T24 cells, immunoprecipitated with a Flag antibody, IgG as control, LC-MS/MS

binding: binds
B1: eukaryotic translation initiation factor eIF5B (protein, UniProt O60841 1-1220)
chain: MGKKQKNKSEDSTKDDIDLDALAAEIEGAGAAKEQEPQKSKGKKKKEKKKQDFDEDDILKELEELSLEAQGIKADRETVAVKPTENNEEEFTSKDKKKKGQKGKKQSFDDNDSEELEDKDSKSKKTAKPKVEMYSGSDDDDDFNKLPKKAKGKAQKSNKKWDGSEEDEDNSKKIKERSRINSSGESGDESDEFLQSRKGQKKNQKNKPGPNIESGNEDDDASFKIKTVAQKKAEKKERERKKRDEEKAKLRKLKEKEELETGKKDQSKQKESQRKFEEETVKSKVTVDTGVIPASEEKAETPTAAEDDNEGDKKKKDKKKKKGEKEEKEKEKKKGPSKATVKAMQEALAKLKEEEERQKREEEERIKRLEELEAKRKEEERLEQEKRERKKQKEKERKERLKKEGKLLTKSQREARARAEATLKLLQAQGVEVPSKDSLPKKRPIYEDKKRKKIPQQLESKEVSESMELCAAVEVMEQGVPEKEETPPPVEPEEEEDTEDAGLDDWEAMASDEETEKVEGNKVHIEVKENPEEEEEEEEEEEEDEESEEEEEEEGESEGSEGDEEDEKVSDEKDSGKTLDKKPSKEMSSDSEYDSDDDRTKEERAYDKAKRRIEKRRLEHSKNVNTEKLRAPIICVLGHVDTGKTKILDKLRHTHVQDGEAGGITQQIGATNVPLEAINEQTKMIKNFDRENVRIPGMLIIDTPGHESFSNLRNRGSSLCDIAILVVDIMHGLEPQTIESINLLKSKKCPFIVALNKIDRLYDWKKSPDSDVAATLKKQKKNTKDEFEERAKAIIVEFAQQGLNAALFYENKDPRTFVSLVPTSAHTGDGMGSLIYLLVELTQTMLSKRLAHCEELRAQVMEVKALPGMGTTIDVILINGRLKEGDTIIVPGVEGPIVTQIRGLLLPPPMKELRVKNQYEKHKEVEAAQGVKILGKDLEKTLAGLPLLVAYKEDEIPVLKDELIHELKQTLNAIKLEEKGVYVQASTLGSLEALLEFLKTSEVPYAGINIGPVHKKDVMKASVMLEHDPQYAVILAFDVRIERDAQEMADSLGVRIFSAEIIYHLFDAFTKYRQDYKKQKQEEFKHIAVFPCKIKILPQYIFNSRDPIVMGVTVEAGQVKQGTPMCVPSKNFVDIGIVTSIEINHKQVDVAKKGQEVCVKIEPIPGESPKMFGRHFEATDILVSKISRQSIDALKDWFRDEMQKSDWQLIVELKKVFEII

These are yes or no findings as the source states them, for the method shown. Binding seen in cells or lysates may run through a third protein. A yes stands for co-enrichment or nearness to the bait. Other partners may have been found.
